Experimental findings from article PMC4521941 are described below.

Sequences of proteins named here, by UniProt entry; tags and fusion partners are left off. A change or cut given only in a name is not applied to a line headed by its entry.
UniProt Q9U7F6: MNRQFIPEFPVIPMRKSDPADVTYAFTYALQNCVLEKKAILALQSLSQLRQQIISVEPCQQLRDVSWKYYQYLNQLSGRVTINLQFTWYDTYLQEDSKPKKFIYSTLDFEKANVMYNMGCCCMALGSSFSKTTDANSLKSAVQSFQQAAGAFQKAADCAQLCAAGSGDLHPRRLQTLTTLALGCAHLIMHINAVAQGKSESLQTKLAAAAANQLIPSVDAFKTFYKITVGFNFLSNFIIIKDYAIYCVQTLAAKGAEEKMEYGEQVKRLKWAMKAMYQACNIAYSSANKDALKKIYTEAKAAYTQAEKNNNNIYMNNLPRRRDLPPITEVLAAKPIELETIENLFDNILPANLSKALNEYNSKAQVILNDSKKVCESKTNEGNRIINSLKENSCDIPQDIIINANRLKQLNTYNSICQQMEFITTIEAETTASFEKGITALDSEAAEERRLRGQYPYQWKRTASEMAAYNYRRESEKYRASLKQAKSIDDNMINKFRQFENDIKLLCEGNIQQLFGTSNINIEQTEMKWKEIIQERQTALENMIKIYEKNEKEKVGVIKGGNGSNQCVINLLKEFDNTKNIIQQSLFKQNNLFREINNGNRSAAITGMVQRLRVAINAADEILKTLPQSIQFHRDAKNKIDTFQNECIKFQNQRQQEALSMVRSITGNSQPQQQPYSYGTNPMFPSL
UniProt C4M1A5: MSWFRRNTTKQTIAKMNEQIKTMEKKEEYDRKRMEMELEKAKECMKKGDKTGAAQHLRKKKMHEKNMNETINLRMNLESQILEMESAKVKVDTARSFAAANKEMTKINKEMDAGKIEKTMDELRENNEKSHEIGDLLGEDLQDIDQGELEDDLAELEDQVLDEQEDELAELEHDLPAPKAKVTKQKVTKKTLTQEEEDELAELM

No constants are given. Whether binding was seen depends on the method and setting. In cells and extracts the contact can be indirect. Binding calls can cover weak binding; strength is not graded here.

The experiment deals with EhADH (E. histolytica (endogenous in trophozoites)) (UniProt Q9U7F6). Briefly: co-IP; rabbit αEhADH antibodies (or preimmune serum) on protein G-agarose; trophozoite lysates (1 mg) in resting conditions and at different times of erythrophagocytosis; overnight at 4 °C; washes with PBS; western blot. (In general: In western blotting, separated proteins are transferred to a membrane and probed.)

As to EhVps32 protein (from UniProt C4M1A5), the binding entry is “binds”.
